Source: PMC9026428 (Pharmaceutics, 2022)

Tests used:
Candida albicans 247 = tested on: Candida albicans 247
Experimental: (§1) The assessment of antifungal potential of synthesized agents was carried out using four reference strains (C. albicans ATCC 10231, C. albicans SC5314, C. glabrata DSM […] and C. krusei DSM […]) and six clinical isolates of fluconazole-resistant C. albicans that were provided by the Hospital of Medical University of Gdansk, Poland. Moreover, four C. albicans isolates, assigned as B3, B4, Gu4 and Gu5, were used for investigation whether the synthesized fluconazole derivatives were effectively removed from the yeast cells by the drug efflux transporters, as in the case of fluconazole. These strains were kindly provided by Prof. Joachim Morschhäuser from University of Würzburg (Würzburg, Germany). Strains Gu4 and B3 were fluconazole-sensitive isolates obtained from early infection episodes, while Gu5 and B4 were the corresponding fluconazole-resistant isolates obtained from later episodes in the same patients treated with fluconazole. The lack of susceptibility of the Gu5 strain to fluconazole was a consequence of overexpression of CDR1/2 genes encoding ABC transporters, whereas the resistance of B4 strain was caused by overexpression of the MDR1 gene encoding a membrane transport protein of the major facilitator superfamily (MFS). All of these Candida spp. strains were maintained on YPD agar plates (1% (w/v) yeast extract, 2% (w/v) peptone, 2% (w/v) glucose, 2% (w/v) agar) at 30 °C for 16–24 h. For all of the assays aimed at assessing the antifungal potential of the synthesized agents, the yeasts were cultivated at 37 °C in RPMI 1640 medium (with L-glutamine, without sodium bicarbonate, Sigma-Aldrich, Darmstadt, Germany)) buffered to a pH of 7.0 with 0.165 M morpholinepropanesulfonic acid (MOPS) buffer (Sigma-Aldrich). In this study, we used the human foreskin fibroblast cell line Hs27 (ATCC CRL 1634TM) and the human endothelial cell line HUVEC (C2519A), purchased from Lonza Group AG, (Basel, Switzerland). The Hs27 cells were maintained in cell media consisting of Dulbecco’s modified Eagles medium (DMEM), (Corning, Arizona, USA) with 10% fetal bovine serum (FBS), (Corning, Port Elizabeth, South Africa), 1% penicillin/streptomycin (Sigma-Aldrich Inc., Darmstadt, Germany), and 1% L-glutamine (Corning, Arizona, USA). The human endothelial cell line was maintained in cell media consisting of Endothelial Cell Growth Medium-2 Single Quots Kit (Lonza, USA). Both cell lines were cultured in an incubator at 37 °C and 5% CO2.
(§2) Antifungal activity of the tested compounds against yeast cells was determined in 96-well plates as described in the CLSI document M27-A3 [39], with minor modifications (CLSI, 2008). […] The plates were incubated for 24 h at 37 °C. Each test was performed in triplicate. The final concentration of DMSO was ensured to be around 1% in all experiments.
(§3) For determination of minimum fungicidal concentrations (MFC), small aliquots of suspensions (around 10 μL) from each well were transferred using the pipette to YPD agar plates without inhibitors and incubated for 24 h at 37 °C.

Candida albicans Gu5 = tested on: Candida albicans Gu5
Experimental: as §1, §2, §3

[1] = tested on: Candida albicans ATCC 10231
Experimental: as §1, §2, §3

Candida albicans 190 = tested on: Candida albicans 190
Experimental: as §1, §2, §3

Candida albicans B4 = tested on: Candida albicans B4
Experimental: as §1, §2, §3

Candida krusei DSM 11226 = tested on: Candida krusei DSM 11226
Experimental: as §1, §2, §3

Candida albicans 574 = tested on: Candida albicans 574
Experimental: as §1, §2, §3

Candida albicans 604 = tested on: Candida albicans 604
Experimental: as §1, §2, §3

Candida albicans Gu4 = tested on: Candida albicans Gu4
Experimental: as §1, §2, §3

Candida albicans 48 = tested on: Candida albicans 48
Experimental: as §1, §2, §3

[2] = tested on: Candida glabrata DSM 6128
Experimental: as §1, §2, §3

Candida albicans 138 = tested on: Candida albicans 138
Experimental: as §1, §2, §3

Candida albicans SC 5314 = tested on: Candida albicans SC 5314
Experimental: as §1, §2, §3

Candida albicans B3 = tested on: Candida albicans B3
Experimental: as §1, §2, §3

Structure (SMILES): CC[C@H](C)[C@H](NC(=O)[C@H](CCCCN)NC(=O)[C@H](CCCCN)NC(=O)[C@H](C)NC(=O)[C@H](CC(C)C)NC(=O)[C@H](C)NC(=O)[C@H](C)NC(=O)[C@H](CC(C)C)NC(=O)[C@H](C)NC(=O)[C@H](CCCCN)NC(=O)[C@H](CC(C)C)NC(=O)[C@H](CC(N)=O)NC(=O)[C@@H](NC(=O)[C@H](CCCCN)NC(=O)CNC(=O)[C@H](CC(C)C)NC(=O)[C@H](CC(C)C)NC(=O)[C@H](Cc1ccc(O)cc1)NC(=O)CNC(=O)[C@H](C)NC(=O)CCCC(=O)OC(Cn1cncn1)(Cn1cncn1)c1ccc(F)cc1F)[C@@H](C)CC)C(=O)N[C@@H](CC(C)C)C(N)=O [FLCpOH-TP10-NH2]
- Selectivity index (SI) (Candida albicans 247; IC90 HUVEC (72 h) / MIC50 (24 h) Candida albicans 247): 0.76
- Selectivity index (SI) (Candida albicans 247; IC90 Hs27 (72 h) / MIC50 (24 h) Candida albicans 247): 0.64
- Selectivity index (SI) (Candida albicans Gu5; IC90 HUVEC (72 h) / MIC50 (24 h) Candida albicans Gu5): 0.55
- Selectivity index (SI) (Candida albicans Gu5; IC90 Hs27 (72 h) / MIC50 (24 h) Candida albicans Gu5): 0.46
- Selectivity index (SI) ([1]; IC90 HUVEC (72 h) / MIC50 (24 h) Candida albicans ATCC 10231): 2.29
- Selectivity index (SI) ([1]; IC90 Hs27 (72 h) / MIC50 (24 h) Candida albicans ATCC 10231): 1.92
- Selectivity index (SI) (Candida albicans 190; IC90 HUVEC (72 h) / MIC50 (24 h) Candida albicans 190): 0.76
- Selectivity index (SI) (Candida albicans 190; IC90 Hs27 (72 h) / MIC50 (24 h) Candida albicans 190): 0.64
- Selectivity index (SI) (Candida albicans B4; IC90 HUVEC (72 h) / MIC50 (24 h) Candida albicans B4): 0.55
- Selectivity index (SI) (Candida albicans B4; IC90 Hs27 (72 h) / MIC50 (24 h) Candida albicans B4): 0.46
- Selectivity index (SI) (Candida krusei DSM 11226; IC90 HUVEC (72 h) / MIC50 (24 h) Candida krusei DSM 11226): 0.55
- Selectivity index (SI) (Candida krusei DSM 11226; IC90 Hs27 (72 h) / MIC50 (24 h) Candida krusei DSM 11226): 0.46
- Selectivity index (SI) (Candida albicans 574; IC90 HUVEC (72 h) / MIC50 (24 h) Candida albicans 574): 0.76
- Selectivity index (SI) (Candida albicans 574; IC90 Hs27 (72 h) / MIC50 (24 h) Candida albicans 574): 0.64
- Selectivity index (SI) (Candida albicans 604; IC90 HUVEC (72 h) / MIC50 (24 h) Candida albicans 604): 0.76
- Selectivity index (SI) (Candida albicans 604; IC90 Hs27 (72 h) / MIC50 (24 h) Candida albicans 604): 0.64
- Selectivity index (SI) (Candida albicans Gu4; IC90 HUVEC (72 h) / MIC50 (24 h) Candida albicans Gu4): 0.76
- Selectivity index (SI) (Candida albicans Gu4; IC90 Hs27 (72 h) / MIC50 (24 h) Candida albicans Gu4): 0.64
- Selectivity index (SI) (Candida albicans 48; IC90 HUVEC (72 h) / MIC50 (24 h) Candida albicans 48): 0.76
- Selectivity index (SI) (Candida albicans 48; IC90 Hs27 (72 h) / MIC50 (24 h) Candida albicans 48): 0.64
- Selectivity index (SI) ([2]; IC90 HUVEC (72 h) / MIC50 (24 h) Candida glabrata DSM 6128): 0.55
- Selectivity index (SI) ([2]; IC90 Hs27 (72 h) / MIC50 (24 h) Candida glabrata DSM 6128): 0.46
- Selectivity index (SI) (Candida albicans 138; IC90 HUVEC (72 h) / MIC50 (24 h) Candida albicans 138): 0.76
- Selectivity index (SI) (Candida albicans 138; IC90 Hs27 (72 h) / MIC50 (24 h) Candida albicans 138): 0.64
- Selectivity index (SI) (Candida albicans SC 5314; IC90 HUVEC (72 h) / MIC50 (24 h) Candida albicans SC 5314): 4.29
- Selectivity index (SI) (Candida albicans SC 5314; IC90 Hs27 (72 h) / MIC50 (24 h) Candida albicans SC 5314): 3.60
- Selectivity index (SI) (Candida albicans B3; IC90 HUVEC (72 h) / MIC50 (24 h) Candida albicans B3): 1.12
- Selectivity index (SI) (Candida albicans B3; IC90 Hs27 (72 h) / MIC50 (24 h) Candida albicans B3): 0.92

Like-named read-outs stand apart in the source and are kept apart here.
